Results: the supplement of paper PMC12823440, “Inhibitors supercharge kinase turnover through native proteolytic circuits” (Nature, 2025)
Where a name gives a salt, the structure may show the parent alone. The list shows a part of the results. Hit calls seldom repeat between salt and free forms of one compound.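 Kinases, fused to nanoluciferase, were expressed in K562 cells; luminescence was measured every 4 h from 2 to 18 h as percent of control (DMSO = 100%, positive control = 0%). A time point is decreased if signal falls significantly (2 sigma). Hits were called by the authors by a rule that is not shown; the count of time points alone does not decide it.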

Amino acid sequences for entries named in this document (tags omitted). A change or cut given only in a name is not applied to a line headed by its entry.
UniProt P50613: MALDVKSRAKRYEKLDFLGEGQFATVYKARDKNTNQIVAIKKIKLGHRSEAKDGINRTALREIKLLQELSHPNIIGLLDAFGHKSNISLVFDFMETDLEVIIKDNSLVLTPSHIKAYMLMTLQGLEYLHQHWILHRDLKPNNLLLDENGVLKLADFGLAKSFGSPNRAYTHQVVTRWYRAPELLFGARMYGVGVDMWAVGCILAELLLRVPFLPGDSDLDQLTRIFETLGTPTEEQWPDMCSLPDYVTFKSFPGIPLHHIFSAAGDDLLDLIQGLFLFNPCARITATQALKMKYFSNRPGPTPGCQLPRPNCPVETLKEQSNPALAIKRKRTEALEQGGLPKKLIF
UniProt P50750, whole entry: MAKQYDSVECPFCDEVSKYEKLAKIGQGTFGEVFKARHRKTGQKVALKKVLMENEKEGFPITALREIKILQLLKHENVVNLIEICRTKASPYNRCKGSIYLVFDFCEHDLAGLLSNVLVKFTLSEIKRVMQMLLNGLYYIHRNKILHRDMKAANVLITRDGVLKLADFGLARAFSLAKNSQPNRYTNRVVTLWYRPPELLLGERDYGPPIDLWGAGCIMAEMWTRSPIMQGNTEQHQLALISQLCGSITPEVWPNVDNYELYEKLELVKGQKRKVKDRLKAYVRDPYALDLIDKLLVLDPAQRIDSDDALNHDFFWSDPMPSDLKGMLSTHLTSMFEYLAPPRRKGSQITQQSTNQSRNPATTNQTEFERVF
UniProt O96017, whole entry: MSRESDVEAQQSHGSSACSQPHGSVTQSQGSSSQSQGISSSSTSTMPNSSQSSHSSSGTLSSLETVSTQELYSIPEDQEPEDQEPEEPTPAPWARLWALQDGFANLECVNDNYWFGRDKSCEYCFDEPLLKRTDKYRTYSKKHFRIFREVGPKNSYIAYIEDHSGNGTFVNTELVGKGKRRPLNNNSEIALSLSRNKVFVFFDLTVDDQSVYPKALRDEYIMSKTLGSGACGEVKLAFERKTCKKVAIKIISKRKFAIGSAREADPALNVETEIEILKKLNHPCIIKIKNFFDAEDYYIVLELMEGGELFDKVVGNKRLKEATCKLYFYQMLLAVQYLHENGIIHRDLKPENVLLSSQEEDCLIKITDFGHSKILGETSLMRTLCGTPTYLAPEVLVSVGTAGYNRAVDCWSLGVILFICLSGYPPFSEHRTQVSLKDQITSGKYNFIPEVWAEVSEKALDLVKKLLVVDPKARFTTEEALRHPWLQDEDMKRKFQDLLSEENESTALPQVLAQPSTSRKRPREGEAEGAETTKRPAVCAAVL
UniProt P07333, whole entry: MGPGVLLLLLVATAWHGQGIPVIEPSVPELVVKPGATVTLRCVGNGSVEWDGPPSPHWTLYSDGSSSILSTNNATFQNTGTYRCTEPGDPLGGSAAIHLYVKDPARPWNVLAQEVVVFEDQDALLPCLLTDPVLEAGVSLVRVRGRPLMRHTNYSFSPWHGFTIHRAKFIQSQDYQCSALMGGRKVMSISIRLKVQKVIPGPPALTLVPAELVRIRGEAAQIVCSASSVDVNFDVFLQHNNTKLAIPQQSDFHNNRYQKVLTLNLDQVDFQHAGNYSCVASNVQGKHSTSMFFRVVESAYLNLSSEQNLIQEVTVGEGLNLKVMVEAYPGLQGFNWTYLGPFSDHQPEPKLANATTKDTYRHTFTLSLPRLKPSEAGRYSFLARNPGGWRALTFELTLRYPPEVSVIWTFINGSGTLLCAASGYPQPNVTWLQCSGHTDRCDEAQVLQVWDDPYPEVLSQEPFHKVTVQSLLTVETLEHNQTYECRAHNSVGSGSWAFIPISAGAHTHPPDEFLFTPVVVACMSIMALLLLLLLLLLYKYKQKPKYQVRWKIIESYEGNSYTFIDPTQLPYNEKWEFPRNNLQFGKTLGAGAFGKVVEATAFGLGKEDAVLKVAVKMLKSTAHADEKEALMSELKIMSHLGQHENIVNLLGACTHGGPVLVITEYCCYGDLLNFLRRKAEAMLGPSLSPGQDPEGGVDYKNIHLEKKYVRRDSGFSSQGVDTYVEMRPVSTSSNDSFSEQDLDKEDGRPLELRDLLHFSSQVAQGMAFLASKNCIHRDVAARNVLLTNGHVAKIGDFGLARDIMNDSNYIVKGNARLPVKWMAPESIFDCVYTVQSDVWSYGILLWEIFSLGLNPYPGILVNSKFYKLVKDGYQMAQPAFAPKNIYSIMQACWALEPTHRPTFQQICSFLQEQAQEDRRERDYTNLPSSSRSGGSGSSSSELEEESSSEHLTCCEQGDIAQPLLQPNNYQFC
UniProt P41240: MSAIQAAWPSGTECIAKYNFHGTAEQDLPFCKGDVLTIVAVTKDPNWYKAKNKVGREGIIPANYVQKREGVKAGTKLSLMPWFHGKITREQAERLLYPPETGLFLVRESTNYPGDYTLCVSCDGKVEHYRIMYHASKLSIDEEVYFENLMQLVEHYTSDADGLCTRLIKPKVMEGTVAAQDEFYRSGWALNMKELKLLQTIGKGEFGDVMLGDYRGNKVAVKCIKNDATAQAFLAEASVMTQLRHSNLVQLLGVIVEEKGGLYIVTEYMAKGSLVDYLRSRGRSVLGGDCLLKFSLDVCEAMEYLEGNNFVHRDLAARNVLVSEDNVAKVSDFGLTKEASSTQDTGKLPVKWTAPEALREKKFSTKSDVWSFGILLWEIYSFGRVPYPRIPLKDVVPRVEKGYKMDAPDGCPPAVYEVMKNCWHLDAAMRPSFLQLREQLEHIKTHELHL
UniProt P48729: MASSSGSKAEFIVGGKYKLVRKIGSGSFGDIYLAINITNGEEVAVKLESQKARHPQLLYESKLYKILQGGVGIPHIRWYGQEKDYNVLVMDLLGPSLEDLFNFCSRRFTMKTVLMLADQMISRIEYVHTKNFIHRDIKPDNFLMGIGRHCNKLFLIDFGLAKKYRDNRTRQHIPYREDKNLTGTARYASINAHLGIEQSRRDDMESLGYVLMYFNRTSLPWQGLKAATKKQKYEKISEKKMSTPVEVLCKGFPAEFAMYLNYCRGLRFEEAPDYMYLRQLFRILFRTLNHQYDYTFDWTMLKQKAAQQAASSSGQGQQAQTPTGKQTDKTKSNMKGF
UniProt P48730: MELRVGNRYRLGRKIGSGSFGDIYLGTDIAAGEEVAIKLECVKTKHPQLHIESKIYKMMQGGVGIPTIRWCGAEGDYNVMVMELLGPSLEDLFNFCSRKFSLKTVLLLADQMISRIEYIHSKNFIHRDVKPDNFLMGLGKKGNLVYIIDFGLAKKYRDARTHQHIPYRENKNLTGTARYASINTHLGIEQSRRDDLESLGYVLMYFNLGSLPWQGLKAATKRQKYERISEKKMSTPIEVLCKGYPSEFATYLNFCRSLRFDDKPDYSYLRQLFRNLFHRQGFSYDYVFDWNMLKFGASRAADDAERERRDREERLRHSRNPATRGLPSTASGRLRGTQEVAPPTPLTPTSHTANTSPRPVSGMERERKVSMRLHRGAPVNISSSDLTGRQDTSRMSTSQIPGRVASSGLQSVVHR
UniProt Q08345: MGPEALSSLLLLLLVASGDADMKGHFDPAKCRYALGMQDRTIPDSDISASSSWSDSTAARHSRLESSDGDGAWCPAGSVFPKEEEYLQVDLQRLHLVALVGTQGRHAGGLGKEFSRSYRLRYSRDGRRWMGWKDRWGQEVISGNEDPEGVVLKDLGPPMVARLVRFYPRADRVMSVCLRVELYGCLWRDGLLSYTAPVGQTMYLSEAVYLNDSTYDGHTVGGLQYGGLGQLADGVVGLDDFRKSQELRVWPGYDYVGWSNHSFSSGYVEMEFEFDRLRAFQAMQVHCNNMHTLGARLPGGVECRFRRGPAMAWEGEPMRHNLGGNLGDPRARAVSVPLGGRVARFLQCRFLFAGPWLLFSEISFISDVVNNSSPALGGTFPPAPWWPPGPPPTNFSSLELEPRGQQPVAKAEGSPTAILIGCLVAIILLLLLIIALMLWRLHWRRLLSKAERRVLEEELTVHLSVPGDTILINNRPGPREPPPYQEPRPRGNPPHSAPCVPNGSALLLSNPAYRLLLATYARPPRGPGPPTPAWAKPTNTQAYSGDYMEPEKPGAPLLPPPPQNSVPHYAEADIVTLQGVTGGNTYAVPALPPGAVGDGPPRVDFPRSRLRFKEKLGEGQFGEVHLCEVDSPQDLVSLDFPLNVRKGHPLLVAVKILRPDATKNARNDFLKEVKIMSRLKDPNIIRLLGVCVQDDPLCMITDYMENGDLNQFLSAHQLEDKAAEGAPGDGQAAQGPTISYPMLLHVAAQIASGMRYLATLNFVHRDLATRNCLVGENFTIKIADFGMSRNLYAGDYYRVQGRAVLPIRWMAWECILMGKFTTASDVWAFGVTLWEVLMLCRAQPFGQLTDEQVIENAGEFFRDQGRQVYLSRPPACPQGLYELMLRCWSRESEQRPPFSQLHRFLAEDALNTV
UniProt Q9Y463, whole entry, looked up: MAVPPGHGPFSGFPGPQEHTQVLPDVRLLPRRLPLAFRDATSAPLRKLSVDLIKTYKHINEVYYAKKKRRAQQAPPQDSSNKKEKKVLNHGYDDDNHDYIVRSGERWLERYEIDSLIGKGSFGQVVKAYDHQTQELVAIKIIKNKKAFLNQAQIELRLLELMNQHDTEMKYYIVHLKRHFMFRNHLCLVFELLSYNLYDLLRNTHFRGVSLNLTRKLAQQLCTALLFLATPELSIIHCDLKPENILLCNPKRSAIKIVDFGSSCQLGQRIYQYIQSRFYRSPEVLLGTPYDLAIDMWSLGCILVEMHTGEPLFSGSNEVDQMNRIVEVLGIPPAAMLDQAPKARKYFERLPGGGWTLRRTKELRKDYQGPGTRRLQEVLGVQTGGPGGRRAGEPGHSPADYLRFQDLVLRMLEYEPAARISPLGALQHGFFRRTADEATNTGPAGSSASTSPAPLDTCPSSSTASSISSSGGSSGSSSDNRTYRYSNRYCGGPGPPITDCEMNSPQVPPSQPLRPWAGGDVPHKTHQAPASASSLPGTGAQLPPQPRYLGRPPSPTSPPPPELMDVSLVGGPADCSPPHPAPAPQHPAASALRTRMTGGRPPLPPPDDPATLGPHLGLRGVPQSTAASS
UniProt Q92630: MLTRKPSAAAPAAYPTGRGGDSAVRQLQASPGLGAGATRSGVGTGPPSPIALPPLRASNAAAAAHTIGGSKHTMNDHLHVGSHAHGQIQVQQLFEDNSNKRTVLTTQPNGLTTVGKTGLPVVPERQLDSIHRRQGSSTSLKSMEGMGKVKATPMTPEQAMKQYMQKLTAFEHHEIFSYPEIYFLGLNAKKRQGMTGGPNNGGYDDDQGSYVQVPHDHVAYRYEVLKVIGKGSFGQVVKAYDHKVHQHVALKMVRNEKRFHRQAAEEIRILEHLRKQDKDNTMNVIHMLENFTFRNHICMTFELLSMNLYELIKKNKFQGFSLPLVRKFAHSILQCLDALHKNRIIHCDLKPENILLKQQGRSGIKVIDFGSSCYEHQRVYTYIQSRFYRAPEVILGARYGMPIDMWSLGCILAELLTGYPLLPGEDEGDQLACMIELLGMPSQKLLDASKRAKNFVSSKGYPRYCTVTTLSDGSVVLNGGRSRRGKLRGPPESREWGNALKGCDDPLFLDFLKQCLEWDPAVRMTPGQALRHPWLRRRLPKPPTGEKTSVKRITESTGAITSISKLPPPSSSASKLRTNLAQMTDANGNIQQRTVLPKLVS

Columns and labels:
Assay in all cases: kinase-Nluc reporter destabilization hit call (1 = scored as downregulated) (binary); higher = compound decreases kinase abundance
Conditions in all cases: K562; 2-18 h
CDK7 = CDK7 (UniProt P50613)
CDK9 = CDK9 (UniProt P50750)
CHEK2 = CHEK2 (UniProt O96017)
CSF1R = CSF1R (UniProt P07333)
CSK = CSK (UniProt P41240)
CSNK1A1 = CSNK1A1 (UniProt P48729)
CSNK1D = CSNK1D (UniProt P48730)
DDR1 = DDR1 (UniProt Q08345)
DYRK1B = DYRK1B (UniProt Q9Y463)
DYRK2 = DYRK2 (UniProt Q92630)

Measured: kinase-Nluc reporter destabilization hit call

O=C(CNC(=O)c1ccc(-c2ccccc2)cc1)NC1CCCc2ccccc21 (stereo not given) [TAO Kinase inhibitor 1] (10 µM)
inactive: CDK7 = 0 | CDK9 = 0 | CHEK2 = 0 | CSF1R 0 | CSK 0 | CSNK1A1 = 0 | CSNK1D 0 | DDR1 = 0 | DYRK1B 0 | DYRK2 = 0

COC1(c2sc3c(N4CCOCC4)nc(-c4cnc(N)nc4)nc3c2C)COC1 (2.5 µM)
inactive: CDK7 = 0 | CDK9 = 0 | CHEK2 = 0 | CSF1R 0 | CSK 0 | CSNK1A1 = 0 | CSNK1D 0 | DDR1 = 0 | DYRK1B 0 | DYRK2 = 0

COc1cc2ncnc(Nc3cccc(Cl)c3)c2cc1OC (10 µM)
inactive: CDK7 = 0 | CDK9 = 0 | CHEK2 = 0 | CSF1R 0 | CSK 0 | CSNK1A1 = 0 | CSNK1D 0 | DDR1 = 0 | DYRK1B 0 | DYRK2 = 0

Cn1cnc(-c2cc3nccc(Oc4ccc(NC(=S)NC(=O)Cc5ccccc5)cc4F)c3s2)c1 [MGCD-265 analog] (10 µM)
inactive: CDK7 = 0 | CDK9 = 0 | CHEK2 = 0 | CSF1R 0 | CSK 0 | CSNK1A1 = 0 | CSNK1D 0 | DDR1 = 0 | DYRK1B 0 | DYRK2 = 0

O=C1Nc2nc(-c3c(O)cccc3OCC3CC3)cc([C@@H]3CCCNC3)c2CO1 [Bay 65-1942 (hydrochloride)] (10 µM)
inactive: CDK7 = 0 | CDK9 = 0 | CHEK2 = 0 | CSF1R 0 | CSK 0 | CSNK1A1 = 0 | CSNK1D 0 | DDR1 = 0 | DYRK1B 0 | DYRK2 = 0

Cc1cc([C@H](C)Nc2ccccc2)c2oc(N3CCOCC3)cc(=O)c2c1 (10 µM)
inactive: CDK7 = 0 | CDK9 = 0 | CHEK2 = 0 | CSF1R 0 | CSK 0 | CSNK1A1 = 0 | CSNK1D 0 | DDR1 = 0 | DYRK1B 0 | DYRK2 = 0

C=C(CCC=C(C)C)[C@H]1CC[C@]2(C)[C@@H]1[C@H](O)C[C@@H]1[C@@]3(C)CC[C@H](O[C@@H]4O[C@H](CO)[C@@H](O)[C@H](O)[C@H]4O[C@@H]4O[C@H](CO)[C@@H](O)[C@H](O)[C@H]4O)C(C)(C)[C@@H]3CC[C@]12C [Ginsenoside Rk1] (10 µM)
inactive: CDK7 = 0 | CDK9 = 0 | CHEK2 = 0 | CSF1R 0 | CSK 0 | CSNK1A1 = 0 | CSNK1D 0 | DDR1 = 0 | DYRK1B 0 | DYRK2 = 0

CCN1CCN(Cc2ccc(Nc3ncc(F)c(-c4cc(F)c5nc(CO)n(C(C)C)c5c4)n3)nc2)CC1 [Abemaciclib metabolite M20] (2 µM)
inactive: CDK7 = 0 | CDK9 = 0 | CHEK2 = 0 | CSF1R 0 | CSK 0 | CSNK1A1 = 0 | CSNK1D 0 | DDR1 = 0 | DYRK1B 0 | DYRK2 = 0

Fc1ccc(-c2nc(-c3ccccc3F)[nH]c2-c2ccncc2)cc1 (2.5 µM)
inactive: CDK7 = 0 | CDK9 = 0 | CHEK2 = 0 | CSF1R 0 | CSK 0 | CSNK1A1 = 0 | CSNK1D 0 | DDR1 = 0 | DYRK1B 0 | DYRK2 = 0

COCCO[C@@H]1[C@H](O)[C@@H](CO)O[C@H]1n1cnc2c(=O)[nH]c(N)nc21 [2′-O-(2-Methoxyethyl)guanosine] (10 µM)
inactive: CDK7 = 0 | CDK9 = 0 | CHEK2 = 0 | CSF1R 0 | CSK 0 | CSNK1A1 = 0 | CSNK1D 0 | DDR1 = 0 | DYRK1B 0 | DYRK2 = 0

Cc1cc(-c2cc(OC(=O)c3ccccc3)ccc2Cl)cc2nnc(Nc3ccc(OCCN4CCCC4)cc3)nc12 (0.5 µM)
inactive: CDK7 = 0 | CDK9 = 0 | CHEK2 = 0 | CSF1R 0 | CSK 0 | CSNK1A1 = 0 | CSNK1D 0 | DDR1 = 0 | DYRK1B 0 | DYRK2 = 0

For convenience, two of the compounds above:
COc1cc2ncnc(Nc3cccc(Cl)c3)c2cc1OC (10 µM)
inactive: CDK7 = 0 | CDK9 = 0 | CHEK2 = 0 | CSF1R 0 | CSK 0 | CSNK1A1 = 0 | CSNK1D 0 | DDR1 = 0 | DYRK1B 0 | DYRK2 = 0

Cn1cnc(-c2cc3nccc(Oc4ccc(NC(=S)NC(=O)Cc5ccccc5)cc4F)c3s2)c1 [MGCD-265 analog] (10 µM)
inactive: CDK7 = 0 | CDK9 = 0 | CHEK2 = 0 | CSF1R 0 | CSK 0 | CSNK1A1 = 0 | CSNK1D 0 | DDR1 = 0 | DYRK1B 0 | DYRK2 = 0

Carrying on:

NC1(Cc2ccc(Cl)cc2)CCN(c2ncnc3[nH]ccc23)CC1 (10 µM)
inactive: CDK7 = 0 | CDK9 = 0 | CHEK2 = 0 | CSF1R 0 | CSK 0 | CSNK1A1 = 0 | CSNK1D 0 | DDR1 = 0 | DYRK1B 0 | DYRK2 = 0

CC(=O)c1c(C)c2cnc(Nc3ccc(N4CCN(CCCCNC(=O)COc5cccc6c5C(=O)N(C5CCC(=O)NC5=O)C6=O)CC4)cn3)nc2n(C2CCCC2)c1=O (stereo not given) (10 µM)
inactive: CDK7 = 0 | CDK9 = 0 | CHEK2 = 0 | CSF1R 0 | CSK 0 | CSNK1A1 = 0 | CSNK1D 0 | DDR1 = 0 | DYRK1B 0 | DYRK2 = 0

Cc1ccc(S(=O)(=O)Nc2ccccc2C=Nc2ccccc2NS(=O)(=O)c2ccc(C)cc2)cc1 (10 µM)
inactive: CDK7 = 0 | CDK9 = 0 | CHEK2 = 0 | CSF1R 0 | CSK 0 | CSNK1A1 = 0 | CSNK1D 0 | DDR1 = 0 | DYRK1B 0 | DYRK2 = 0

CC(C)=CC(=O)CCC(=O)N1CCN(Cc2cc3nc(-c4cccc5[nH]ncc45)nc(N4CCOCC4)c3s2)CC1 (10 µM)
inactive: CDK7 = 0 | CHEK2 = 0 | CSF1R 0 | CSK 0 | CSNK1D 0 | DDR1 = 0 | DYRK1B 0 | DYRK2 = 0
active: CDK9 = 1 | CSNK1A1 = 1

CC(C)CC1(O)CCN(C(=O)c2ccc(NS(=O)(=O)c3cccc4nccnc34)cc2)CC1 (10 µM)
inactive: CDK7 = 0 | CDK9 = 0 | CHEK2 = 0 | CSF1R 0 | CSK 0 | CSNK1A1 = 0 | CSNK1D 0 | DDR1 = 0 | DYRK1B 0 | DYRK2 = 0

COc1cc([N+](=O)[O-])ccc1S(=O)(=O)N1C[C@@H](CN2CCN(c3ccccn3)CC2)[C@H](c2cccc(F)c2)C1 (relative stereo) (10 µM)
inactive: CDK7 = 0 | CDK9 = 0 | CHEK2 = 0 | CSF1R 0 | CSK 0 | CSNK1A1 = 0 | CSNK1D 0 | DDR1 = 0 | DYRK1B 0 | DYRK2 = 0
